Our source for the binding values is publication PMC8708760.

The target in the test is BmCDK1^Flag (Bombyx mori CDK1 overexpressed by recombinant BmNPV vBm-BmCDK1) (Bombyx mori). Nature of the test: affinity purification with mass spectrometry; BmN-SWU1 cells infected with 1 MOI of vBm-BmCDK1, lysed 48 h p.i.; IP with α-Flag monoclonal antibody on protein A+G magnetic beads, 2-3 h at room temperature, washed with PBST; mouse IgG as negative control; SDS-PAGE, silver staining, bands of three experiments combined for LC-MS/MS.

No constants are given. Whether binding was seen depends on the method and setting. Binding seen in cells or lysates may run through a third protein. Here binding means that the protein was enriched with, or labelled near, the bait; the list need not be complete.

B1: BmNPV IAP1 (made by the virus in infected cells) (protein, UniProt O92394 1-292)
chain: MNEDTPPFYFINTRDNFRDNIAEHVFDMLLERHGSFENYPIVNTAFINSLIVNGFKYNQVDDHVVCEYCEAEIKNWSEDECIEYAHVTLSPYCAYANKIAEHESFGDNITINAVLVKEGRPKCVYRCMSNLQSRMDTFVNFWPAALRDMITNIAEAGLFYTGRGDETVCFFCDCCVRDWHINEDAWQRHATENPQCYFVLSVKGKEFCQNAITATHVDKRDDDDDDDNNLNENVDDDIEEKYECKVCLERQRDAVLMPCRHFCVCVQCYFGLDQKCPTCRQDVTDFIKIFVV
As for B1, the binding entry is on record as “binds”.
